Reference: the supplement of paper PMC11732987, “Enantioselective OTUD7B fragment discovery through chemoproteomics screening and high-throughput optimisation” (Communications Chemistry, 2025)
The list shows a part of the results. The data scatter; read single values as rough.

Chains of the proteins cited; added tags and fusions are not shown. Lines headed by an entry give the natural chain unless they say otherwise; changes in a name come on top. Residues count along the entry.
UniProt Q5PSV4: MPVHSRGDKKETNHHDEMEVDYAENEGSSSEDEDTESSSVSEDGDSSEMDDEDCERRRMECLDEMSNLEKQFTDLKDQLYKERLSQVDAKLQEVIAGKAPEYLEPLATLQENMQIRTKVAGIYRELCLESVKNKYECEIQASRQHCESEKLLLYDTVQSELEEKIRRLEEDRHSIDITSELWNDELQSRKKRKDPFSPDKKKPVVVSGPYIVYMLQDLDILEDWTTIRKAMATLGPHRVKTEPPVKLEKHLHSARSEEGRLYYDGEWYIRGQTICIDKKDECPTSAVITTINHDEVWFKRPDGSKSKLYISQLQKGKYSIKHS
UniProt Q96K31: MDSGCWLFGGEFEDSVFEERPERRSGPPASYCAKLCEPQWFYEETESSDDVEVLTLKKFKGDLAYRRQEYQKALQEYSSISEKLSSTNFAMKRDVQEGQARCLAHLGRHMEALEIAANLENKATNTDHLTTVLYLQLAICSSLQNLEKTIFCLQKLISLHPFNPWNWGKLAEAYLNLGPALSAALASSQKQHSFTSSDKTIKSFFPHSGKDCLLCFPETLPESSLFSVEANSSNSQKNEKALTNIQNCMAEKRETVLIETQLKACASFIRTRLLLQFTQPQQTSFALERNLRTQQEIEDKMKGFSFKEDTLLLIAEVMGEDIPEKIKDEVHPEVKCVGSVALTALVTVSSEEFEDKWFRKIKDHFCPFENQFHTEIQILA
UniProt Q9Y6J0, 1755-1775: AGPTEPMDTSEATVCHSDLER
UniProt Q9UKL3: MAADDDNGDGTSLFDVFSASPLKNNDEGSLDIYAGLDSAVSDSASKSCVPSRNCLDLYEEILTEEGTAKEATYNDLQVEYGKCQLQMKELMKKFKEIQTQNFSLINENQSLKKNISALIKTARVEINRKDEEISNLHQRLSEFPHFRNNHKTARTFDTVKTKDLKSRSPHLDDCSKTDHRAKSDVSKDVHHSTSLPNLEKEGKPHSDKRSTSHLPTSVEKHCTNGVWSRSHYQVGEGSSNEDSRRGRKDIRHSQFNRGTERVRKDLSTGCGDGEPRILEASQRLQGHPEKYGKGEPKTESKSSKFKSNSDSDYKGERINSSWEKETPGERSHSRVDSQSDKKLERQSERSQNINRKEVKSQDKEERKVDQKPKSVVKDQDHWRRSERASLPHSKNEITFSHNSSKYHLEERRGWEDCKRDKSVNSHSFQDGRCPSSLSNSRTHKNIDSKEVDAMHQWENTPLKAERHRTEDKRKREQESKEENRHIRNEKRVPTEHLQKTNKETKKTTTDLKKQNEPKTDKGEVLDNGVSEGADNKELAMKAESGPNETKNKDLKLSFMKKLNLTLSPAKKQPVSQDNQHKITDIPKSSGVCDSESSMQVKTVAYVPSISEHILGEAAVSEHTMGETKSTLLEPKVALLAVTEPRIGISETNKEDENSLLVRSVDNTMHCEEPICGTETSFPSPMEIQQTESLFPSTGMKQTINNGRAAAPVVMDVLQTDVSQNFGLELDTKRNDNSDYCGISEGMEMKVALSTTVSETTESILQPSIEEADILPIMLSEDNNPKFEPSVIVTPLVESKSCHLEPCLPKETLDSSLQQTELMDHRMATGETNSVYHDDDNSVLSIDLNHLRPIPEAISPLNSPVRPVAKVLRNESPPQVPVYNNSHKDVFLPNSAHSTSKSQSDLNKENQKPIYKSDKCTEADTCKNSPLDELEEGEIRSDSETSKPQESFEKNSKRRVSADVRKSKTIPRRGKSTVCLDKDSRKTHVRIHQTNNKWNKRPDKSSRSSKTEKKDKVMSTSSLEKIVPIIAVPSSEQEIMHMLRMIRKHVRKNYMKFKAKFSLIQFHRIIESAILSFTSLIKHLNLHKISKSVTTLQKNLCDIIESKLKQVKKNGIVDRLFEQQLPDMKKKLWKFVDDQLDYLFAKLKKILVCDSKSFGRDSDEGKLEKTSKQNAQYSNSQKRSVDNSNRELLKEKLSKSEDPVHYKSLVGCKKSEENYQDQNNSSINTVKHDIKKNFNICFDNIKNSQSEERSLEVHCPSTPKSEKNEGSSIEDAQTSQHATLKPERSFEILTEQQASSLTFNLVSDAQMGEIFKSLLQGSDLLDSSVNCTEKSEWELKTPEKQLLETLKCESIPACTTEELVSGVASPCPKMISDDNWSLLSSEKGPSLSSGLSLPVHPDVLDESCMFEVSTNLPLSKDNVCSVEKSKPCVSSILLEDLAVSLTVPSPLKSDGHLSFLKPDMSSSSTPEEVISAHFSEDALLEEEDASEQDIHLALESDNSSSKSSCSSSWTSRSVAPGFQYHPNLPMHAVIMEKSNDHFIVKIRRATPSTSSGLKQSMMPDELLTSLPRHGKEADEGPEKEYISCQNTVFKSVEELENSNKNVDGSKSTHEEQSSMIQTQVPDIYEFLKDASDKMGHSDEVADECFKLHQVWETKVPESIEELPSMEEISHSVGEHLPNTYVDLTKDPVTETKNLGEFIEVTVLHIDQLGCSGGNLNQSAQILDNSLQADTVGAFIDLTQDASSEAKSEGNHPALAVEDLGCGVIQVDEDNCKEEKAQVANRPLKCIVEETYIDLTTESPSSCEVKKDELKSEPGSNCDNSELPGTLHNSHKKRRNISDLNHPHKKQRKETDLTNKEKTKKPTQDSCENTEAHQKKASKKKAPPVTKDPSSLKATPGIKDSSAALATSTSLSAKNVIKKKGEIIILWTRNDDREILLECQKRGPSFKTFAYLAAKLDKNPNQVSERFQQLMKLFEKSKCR
UniProt O14936: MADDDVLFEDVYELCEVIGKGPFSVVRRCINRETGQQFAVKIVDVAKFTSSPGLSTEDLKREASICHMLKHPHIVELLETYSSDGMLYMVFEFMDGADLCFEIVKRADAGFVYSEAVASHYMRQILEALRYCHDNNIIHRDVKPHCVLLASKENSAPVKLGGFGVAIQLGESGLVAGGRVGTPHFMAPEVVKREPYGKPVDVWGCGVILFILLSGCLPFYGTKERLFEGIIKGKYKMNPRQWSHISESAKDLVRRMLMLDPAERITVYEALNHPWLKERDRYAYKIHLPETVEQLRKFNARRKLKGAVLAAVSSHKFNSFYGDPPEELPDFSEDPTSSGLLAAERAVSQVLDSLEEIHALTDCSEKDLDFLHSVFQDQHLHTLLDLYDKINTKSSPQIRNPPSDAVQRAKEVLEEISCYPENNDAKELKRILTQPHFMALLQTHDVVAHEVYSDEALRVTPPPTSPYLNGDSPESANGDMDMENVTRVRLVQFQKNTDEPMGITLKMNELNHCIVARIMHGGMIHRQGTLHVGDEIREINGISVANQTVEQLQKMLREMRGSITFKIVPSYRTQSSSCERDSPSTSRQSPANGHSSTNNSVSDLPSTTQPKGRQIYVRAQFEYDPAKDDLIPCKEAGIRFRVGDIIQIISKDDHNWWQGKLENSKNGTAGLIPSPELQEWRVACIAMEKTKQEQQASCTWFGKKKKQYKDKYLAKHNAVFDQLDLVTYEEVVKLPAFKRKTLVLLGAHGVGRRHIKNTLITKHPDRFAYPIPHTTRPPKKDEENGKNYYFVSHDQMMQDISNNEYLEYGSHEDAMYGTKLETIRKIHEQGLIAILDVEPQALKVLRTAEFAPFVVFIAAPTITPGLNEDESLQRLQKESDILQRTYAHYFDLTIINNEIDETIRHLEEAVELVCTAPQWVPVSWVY
UniProt P55212: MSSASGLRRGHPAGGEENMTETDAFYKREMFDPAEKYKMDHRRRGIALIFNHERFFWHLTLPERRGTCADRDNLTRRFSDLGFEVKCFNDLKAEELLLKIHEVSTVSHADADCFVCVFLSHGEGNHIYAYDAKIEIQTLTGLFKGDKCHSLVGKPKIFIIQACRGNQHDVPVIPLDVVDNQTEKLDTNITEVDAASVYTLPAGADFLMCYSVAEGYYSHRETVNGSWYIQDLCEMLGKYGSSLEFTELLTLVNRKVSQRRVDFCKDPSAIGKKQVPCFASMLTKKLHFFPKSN
UniProt Q9HB71, whole entry, looked up: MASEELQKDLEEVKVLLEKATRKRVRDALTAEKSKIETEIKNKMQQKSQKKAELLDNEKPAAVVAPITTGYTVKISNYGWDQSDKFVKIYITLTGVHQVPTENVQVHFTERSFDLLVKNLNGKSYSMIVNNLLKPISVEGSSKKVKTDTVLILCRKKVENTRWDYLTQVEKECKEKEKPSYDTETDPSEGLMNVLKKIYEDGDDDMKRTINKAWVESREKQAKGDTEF
UniProt P16152: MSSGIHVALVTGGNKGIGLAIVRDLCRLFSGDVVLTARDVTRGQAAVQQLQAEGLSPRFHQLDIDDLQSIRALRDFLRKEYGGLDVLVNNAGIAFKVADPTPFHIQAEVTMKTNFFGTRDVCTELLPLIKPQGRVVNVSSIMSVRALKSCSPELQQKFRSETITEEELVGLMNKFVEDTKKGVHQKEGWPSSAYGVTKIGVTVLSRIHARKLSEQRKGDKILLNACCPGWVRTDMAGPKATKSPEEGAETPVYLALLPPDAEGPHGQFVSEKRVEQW
UniProt O60566, 648-667: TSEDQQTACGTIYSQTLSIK
UniProt P38398, whole entry, looked up: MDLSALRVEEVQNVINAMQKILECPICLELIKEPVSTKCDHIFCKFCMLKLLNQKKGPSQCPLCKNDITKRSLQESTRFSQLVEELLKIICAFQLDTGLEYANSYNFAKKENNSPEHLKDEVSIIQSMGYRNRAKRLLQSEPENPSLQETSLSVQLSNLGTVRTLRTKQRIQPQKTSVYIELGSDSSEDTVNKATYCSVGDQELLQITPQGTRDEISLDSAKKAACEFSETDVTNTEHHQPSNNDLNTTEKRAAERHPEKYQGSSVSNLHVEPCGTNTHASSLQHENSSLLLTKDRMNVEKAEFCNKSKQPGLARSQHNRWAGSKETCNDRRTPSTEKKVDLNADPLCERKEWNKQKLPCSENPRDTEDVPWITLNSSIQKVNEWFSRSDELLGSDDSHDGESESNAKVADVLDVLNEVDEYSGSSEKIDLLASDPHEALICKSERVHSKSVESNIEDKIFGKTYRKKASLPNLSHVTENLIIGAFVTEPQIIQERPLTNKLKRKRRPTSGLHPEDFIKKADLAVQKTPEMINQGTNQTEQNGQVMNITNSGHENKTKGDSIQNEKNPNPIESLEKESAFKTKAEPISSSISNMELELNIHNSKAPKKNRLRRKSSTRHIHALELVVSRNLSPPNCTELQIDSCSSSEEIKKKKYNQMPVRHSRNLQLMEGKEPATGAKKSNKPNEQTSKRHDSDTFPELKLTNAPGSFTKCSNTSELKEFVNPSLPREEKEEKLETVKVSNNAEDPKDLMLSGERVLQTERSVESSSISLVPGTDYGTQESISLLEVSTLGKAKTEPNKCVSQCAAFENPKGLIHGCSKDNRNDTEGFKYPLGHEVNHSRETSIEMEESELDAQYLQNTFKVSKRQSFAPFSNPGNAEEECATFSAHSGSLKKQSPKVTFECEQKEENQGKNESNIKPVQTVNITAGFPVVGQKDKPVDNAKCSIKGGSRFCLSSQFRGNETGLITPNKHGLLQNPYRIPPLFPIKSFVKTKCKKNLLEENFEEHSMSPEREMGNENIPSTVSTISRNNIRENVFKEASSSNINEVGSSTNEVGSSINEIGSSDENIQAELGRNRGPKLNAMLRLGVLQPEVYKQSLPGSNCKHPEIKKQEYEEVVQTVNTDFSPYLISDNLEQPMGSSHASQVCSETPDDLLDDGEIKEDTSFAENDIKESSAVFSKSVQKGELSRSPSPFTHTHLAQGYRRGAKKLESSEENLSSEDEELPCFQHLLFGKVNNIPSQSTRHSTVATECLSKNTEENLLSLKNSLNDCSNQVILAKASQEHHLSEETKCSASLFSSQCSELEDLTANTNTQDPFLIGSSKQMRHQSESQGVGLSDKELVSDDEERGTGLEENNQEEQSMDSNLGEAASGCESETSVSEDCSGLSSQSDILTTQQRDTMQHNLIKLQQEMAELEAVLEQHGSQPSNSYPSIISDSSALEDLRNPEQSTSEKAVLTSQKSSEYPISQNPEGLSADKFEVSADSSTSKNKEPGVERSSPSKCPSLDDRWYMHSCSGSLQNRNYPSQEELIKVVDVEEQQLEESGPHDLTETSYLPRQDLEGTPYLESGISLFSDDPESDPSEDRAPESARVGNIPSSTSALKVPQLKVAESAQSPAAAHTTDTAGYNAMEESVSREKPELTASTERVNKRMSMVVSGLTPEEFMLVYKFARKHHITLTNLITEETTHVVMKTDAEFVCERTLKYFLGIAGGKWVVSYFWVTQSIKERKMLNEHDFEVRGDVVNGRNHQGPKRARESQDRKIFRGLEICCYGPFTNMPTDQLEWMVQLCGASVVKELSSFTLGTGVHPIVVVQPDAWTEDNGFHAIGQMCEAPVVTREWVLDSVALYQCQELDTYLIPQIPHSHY
UniProt Q12983, whole entry, looked up: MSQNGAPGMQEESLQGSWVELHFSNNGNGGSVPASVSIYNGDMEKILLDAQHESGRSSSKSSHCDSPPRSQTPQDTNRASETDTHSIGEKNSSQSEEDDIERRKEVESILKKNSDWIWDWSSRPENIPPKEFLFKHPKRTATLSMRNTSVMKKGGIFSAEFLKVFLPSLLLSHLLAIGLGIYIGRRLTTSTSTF

Experiments:
[1] = compound: ClCC(=O)N[C@@H]1CCCc2ccccc12; assay: log2 mean competition ratio of IA-DTB cysteine labelling (DMSO/compound) (log2 ratio); higher = stronger cysteine engagement by compound; conditions: treatment time: 4 h, cell line lysate: HEK293T
Procedure: (§1)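 IA-DTB competitive cysteine chemoproteomics in HEK293T RIPA lysate. Lysates were treated with compound 29 or 30 at 50 or 200 µM for 4 h, then IA-DTB (500 µM, 1 h), trypsin-digested, NeutrAvidin-enriched and analysed by diaPASEF. Competition ratio = intensity DMSO / intensity compound (n=4 treated, n=64 DMSO); binding: mean log2 CR ≥ 1 and p ≤ 0.05 plus QC filters. Target is the cysteine site.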

[2] = compound: ClCC(=O)N[C@H]1CCCc2ccccc12; assay: as above; conditions: treatment time: 4 h, cell line lysate: HEK293T
Procedure: as §1

| Target | log2 mean competition ratio ([1]; 50 µM) | log2 mean competition ratio ([1]; 200 µM) | log2 mean competition ratio ([2]; 50 µM) | log2 mean competition ratio ([2]; 200 µM) |
| --- | --- | --- | --- | --- |
| BPTF C1969 | -0.201 | -0.111 | -0.625 | -0.261 |
| CARD8 C149 (UniProt Q9Y2G2) | -0.55 | 0.372 | -0.766 | 0.113 |
| BRMS1L C275 (UniProt Q5PSV4) | 0.2 | -0.359 | -0.242 | -0.603 |
| C8orf76 C32 (UniProt Q96K31) | -0.235 | -0.12 | -0.188 | -0.033 |
| CABIN1 C1769 (UniProt Q9Y6J0) | -0.0906 | -0.0945 | 0.035 | -0.219 |
| BRD7 C646 (UniProt Q9NPI1) | -0.0836 | 0.139 | -0.182 | 0.371 |
| CASP8AP2 C592 (UniProt Q9UKL3) | 0.0573 | -0.199 | -0.361 | -0.213 |
| CASK C698 (UniProt O14936) | 0.183 | 0.183 | 0.127 | 0.18 |
| CASP6 C87 (UniProt P55212) | 0.00658 | -0.02 | -0.511 | -0.152 |
| CARS1 C506 | -0.0682 | -0.0748 | -0.0341 | -0.0369 |
| CACYBP C154 (UniProt Q9HB71) | -0.202 | -0.248 | 0.33 | -0.0653 |
| CAMKV C36 | -0.264 | -0.0891 | -0.205 | 0.122 |
| CAD C986 | 0.0942 | -0.177 | 0.701 | -0.435 |
| CAPNS1 C144 | -0.064 | -0.0597 | -0.0811 | 0.0946 |
| CBR1 C150 (UniProt P16152) | -0.235 | 0.0718 | -0.278 | 0.132 |
| BRD4 C674 (UniProt O60885) | 0.435 | 0.175 | 0.479 | 0.135 |
| BRCA2 C2117 (UniProt P51587) | -0.041 | -0.278 | -0.35 | -0.0268 |
| C3orf80 C177 | -0.186 | 0.276 | -0.551 | 0.0158 |
| BRAT1 C207 (UniProt Q6PJG6) | -0.177 | 0.0735 | -0.128 | -0.088 |
| BUB1B C656 (UniProt O60566) | -0.109 | -0.0415 | 0.37 | -0.174 |
| C15orf39 C483 (UniProt Q6ZRI6) | -0.0589 | 0.086 | 0.189 | 0.152 |
| BTN3A2 C220 (UniProt P78410) | -0.0397 | 0.0864 | -0.0194 | -0.0653 |
| BRCA1 C712 (UniProt P38398) | -0.177 | -0.11 | -0.0314 | -0.297 |
| CAPN7 C242 (UniProt Q9Y6W3) | -0.0953 | -0.104 | 0.056 | -0.171 |
| BNIP3 C129 (UniProt Q12983) | -0.156 | 0.0571 | -0.217 | -0.1 |

Random excerpt: two entries already listed

| Target | log2 mean competition ratio ([1]; 50 µM) | log2 mean competition ratio ([1]; 200 µM) | log2 mean competition ratio ([2]; 50 µM) | log2 mean competition ratio ([2]; 200 µM) |
| --- | --- | --- | --- | --- |
| CARS1 C506 | -0.0682 | -0.0748 | -0.0341 | -0.0369 |
| CASK C698 (UniProt O14936) | 0.183 | 0.183 | 0.127 | 0.18 |
